In the supplement of paper PMC10032668:
This is one part of the list. Only hits are listed; about a third recur on repeated control peptides.

The chains behind the UniProt entries cited, without tags or fusion partners.
RFC3, P40938, UniProt P40938, whole entry: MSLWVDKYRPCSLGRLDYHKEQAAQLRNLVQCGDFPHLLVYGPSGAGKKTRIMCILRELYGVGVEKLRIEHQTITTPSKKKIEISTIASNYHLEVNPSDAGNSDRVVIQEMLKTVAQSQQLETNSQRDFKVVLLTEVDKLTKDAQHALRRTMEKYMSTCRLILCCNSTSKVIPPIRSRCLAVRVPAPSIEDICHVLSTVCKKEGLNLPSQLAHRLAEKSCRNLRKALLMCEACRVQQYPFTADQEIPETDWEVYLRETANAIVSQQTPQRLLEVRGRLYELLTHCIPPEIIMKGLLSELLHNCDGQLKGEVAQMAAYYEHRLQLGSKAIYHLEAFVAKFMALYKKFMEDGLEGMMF
ATP6V1A, P38606, UniProt P38606, whole entry: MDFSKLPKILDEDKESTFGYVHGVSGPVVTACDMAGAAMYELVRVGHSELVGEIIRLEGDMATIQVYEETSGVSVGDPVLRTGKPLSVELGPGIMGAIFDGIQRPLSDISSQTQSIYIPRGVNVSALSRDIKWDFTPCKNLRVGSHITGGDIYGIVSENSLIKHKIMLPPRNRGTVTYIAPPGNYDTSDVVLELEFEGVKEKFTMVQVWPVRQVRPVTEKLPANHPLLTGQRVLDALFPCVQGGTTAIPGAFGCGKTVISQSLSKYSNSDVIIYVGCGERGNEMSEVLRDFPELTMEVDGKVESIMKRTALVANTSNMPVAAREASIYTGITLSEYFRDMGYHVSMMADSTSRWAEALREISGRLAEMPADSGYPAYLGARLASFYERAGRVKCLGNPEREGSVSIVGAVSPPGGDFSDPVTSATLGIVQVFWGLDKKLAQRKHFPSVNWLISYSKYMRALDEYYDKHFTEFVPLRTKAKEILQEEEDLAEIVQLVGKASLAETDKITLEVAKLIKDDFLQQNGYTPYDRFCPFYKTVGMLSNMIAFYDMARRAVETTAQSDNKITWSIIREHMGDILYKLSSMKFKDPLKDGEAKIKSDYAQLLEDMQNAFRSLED
CDC27, P30260, UniProt P30260, whole entry: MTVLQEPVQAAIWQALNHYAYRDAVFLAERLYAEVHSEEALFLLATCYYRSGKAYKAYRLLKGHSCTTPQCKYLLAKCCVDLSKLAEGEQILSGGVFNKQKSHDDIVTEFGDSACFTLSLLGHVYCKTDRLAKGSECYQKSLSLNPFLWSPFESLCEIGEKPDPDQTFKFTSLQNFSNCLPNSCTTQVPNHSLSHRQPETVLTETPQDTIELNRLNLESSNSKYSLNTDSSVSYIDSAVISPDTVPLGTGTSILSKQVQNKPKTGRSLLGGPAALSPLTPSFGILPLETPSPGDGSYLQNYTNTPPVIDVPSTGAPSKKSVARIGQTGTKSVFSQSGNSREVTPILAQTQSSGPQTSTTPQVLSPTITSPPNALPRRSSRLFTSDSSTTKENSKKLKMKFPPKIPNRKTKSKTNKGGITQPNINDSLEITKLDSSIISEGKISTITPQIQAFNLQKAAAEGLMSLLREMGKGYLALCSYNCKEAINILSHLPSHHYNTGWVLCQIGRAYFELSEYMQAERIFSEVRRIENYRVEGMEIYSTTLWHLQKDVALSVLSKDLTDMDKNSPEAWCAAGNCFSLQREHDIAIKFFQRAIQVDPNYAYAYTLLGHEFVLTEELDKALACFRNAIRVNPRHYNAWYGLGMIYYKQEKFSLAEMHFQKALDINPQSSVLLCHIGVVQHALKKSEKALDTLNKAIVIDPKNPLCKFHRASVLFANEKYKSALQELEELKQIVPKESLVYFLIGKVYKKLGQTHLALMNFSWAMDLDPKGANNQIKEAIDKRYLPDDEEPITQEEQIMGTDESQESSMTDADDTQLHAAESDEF
DCTN5, Q9BTE1, UniProt Q9BTE1, whole entry: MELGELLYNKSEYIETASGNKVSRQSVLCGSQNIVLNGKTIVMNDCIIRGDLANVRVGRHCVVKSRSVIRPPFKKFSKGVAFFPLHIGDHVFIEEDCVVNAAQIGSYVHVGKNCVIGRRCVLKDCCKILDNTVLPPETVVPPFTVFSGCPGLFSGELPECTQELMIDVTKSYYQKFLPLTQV
EIF3K, Q9UBQ5, UniProt Q9UBQ5, whole entry: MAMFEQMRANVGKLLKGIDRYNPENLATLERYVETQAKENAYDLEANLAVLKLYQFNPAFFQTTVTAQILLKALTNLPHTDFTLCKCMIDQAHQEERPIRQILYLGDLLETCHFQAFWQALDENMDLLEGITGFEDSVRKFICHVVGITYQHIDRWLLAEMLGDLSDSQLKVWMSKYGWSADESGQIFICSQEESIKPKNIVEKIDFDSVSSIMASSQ
EIF3M, Q7L2H7, UniProt Q7L2H7, whole entry: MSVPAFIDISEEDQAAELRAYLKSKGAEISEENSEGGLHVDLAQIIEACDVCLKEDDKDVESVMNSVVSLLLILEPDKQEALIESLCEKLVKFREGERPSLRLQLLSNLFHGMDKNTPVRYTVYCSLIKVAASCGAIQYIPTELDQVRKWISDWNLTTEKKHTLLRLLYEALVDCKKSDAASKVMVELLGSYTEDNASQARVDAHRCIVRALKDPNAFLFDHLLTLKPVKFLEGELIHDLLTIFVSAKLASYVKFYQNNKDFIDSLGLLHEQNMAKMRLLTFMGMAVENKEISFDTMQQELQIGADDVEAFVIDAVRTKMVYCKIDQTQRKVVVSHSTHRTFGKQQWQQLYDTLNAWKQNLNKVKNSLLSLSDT
GNL1, P36915, UniProt P36915, whole entry: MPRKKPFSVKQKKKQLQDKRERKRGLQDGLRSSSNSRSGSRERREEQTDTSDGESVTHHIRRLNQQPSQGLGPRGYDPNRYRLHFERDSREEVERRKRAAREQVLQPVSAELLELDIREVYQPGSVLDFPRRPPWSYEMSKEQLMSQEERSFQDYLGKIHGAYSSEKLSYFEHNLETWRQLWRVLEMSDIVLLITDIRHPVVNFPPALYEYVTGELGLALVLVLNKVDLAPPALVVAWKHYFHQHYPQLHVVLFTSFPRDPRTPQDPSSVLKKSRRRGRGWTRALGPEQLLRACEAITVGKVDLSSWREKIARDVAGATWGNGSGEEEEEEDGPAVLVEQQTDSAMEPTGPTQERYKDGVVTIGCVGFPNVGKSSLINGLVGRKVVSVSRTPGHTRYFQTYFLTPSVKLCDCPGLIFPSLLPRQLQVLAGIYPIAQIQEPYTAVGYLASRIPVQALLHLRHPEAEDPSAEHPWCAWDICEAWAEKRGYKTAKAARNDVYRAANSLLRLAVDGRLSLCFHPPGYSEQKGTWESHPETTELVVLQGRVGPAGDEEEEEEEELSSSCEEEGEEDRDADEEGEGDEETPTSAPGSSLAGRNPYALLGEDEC
HSPB1, P04792, UniProt P04792, whole entry: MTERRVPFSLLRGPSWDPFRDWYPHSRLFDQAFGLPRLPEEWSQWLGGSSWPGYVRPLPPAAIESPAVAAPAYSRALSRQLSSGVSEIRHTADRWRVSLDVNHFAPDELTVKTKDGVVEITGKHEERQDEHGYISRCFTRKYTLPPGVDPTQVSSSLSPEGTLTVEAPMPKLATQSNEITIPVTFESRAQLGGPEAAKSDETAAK
KPNA3, O00505, UniProt O00505, whole entry: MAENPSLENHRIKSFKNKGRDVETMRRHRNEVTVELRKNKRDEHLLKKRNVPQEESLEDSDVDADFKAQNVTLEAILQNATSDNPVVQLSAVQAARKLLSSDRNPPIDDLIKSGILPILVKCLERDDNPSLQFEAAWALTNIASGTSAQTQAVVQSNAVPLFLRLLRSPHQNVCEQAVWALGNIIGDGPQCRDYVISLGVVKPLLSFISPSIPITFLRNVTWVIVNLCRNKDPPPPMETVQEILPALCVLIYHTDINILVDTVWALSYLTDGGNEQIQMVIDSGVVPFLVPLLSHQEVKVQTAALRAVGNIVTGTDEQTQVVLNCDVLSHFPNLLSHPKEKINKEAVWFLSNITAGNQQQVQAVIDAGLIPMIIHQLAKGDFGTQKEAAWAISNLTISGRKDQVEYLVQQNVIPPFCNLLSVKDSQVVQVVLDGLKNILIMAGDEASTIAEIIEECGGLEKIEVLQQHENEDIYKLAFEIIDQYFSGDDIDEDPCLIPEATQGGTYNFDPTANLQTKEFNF
MECP2, P51608, UniProt P51608, whole entry: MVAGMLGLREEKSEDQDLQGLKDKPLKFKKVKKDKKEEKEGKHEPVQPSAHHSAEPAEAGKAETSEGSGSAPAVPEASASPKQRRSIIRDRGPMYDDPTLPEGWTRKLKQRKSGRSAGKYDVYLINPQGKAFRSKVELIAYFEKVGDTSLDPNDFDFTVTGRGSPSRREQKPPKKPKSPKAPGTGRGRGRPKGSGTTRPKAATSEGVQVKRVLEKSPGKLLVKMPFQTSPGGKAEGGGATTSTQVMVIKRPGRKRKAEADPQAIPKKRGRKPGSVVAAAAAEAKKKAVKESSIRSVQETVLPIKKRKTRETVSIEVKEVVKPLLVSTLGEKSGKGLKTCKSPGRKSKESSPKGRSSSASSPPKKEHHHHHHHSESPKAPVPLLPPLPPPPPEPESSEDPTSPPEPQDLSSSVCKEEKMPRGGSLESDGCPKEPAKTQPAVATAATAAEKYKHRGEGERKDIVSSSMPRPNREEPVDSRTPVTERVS
NELFB, Q8WX92, UniProt Q8WX92, whole entry: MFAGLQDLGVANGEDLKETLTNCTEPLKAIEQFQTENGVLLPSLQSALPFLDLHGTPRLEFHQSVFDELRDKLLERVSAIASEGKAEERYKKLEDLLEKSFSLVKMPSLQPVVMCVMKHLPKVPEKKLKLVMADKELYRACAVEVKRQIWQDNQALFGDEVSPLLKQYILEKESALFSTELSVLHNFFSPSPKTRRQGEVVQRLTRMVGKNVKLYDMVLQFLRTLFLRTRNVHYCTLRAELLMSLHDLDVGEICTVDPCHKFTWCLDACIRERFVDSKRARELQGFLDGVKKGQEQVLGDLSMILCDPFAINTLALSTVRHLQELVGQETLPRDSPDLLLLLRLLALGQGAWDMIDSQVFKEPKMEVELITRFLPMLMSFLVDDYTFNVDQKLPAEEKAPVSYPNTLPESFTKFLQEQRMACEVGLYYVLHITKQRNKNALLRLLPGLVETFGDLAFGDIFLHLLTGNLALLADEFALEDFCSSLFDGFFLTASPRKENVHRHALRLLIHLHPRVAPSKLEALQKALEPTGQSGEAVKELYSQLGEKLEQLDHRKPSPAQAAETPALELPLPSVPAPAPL
PDHA1, P08559, UniProt P08559, whole entry: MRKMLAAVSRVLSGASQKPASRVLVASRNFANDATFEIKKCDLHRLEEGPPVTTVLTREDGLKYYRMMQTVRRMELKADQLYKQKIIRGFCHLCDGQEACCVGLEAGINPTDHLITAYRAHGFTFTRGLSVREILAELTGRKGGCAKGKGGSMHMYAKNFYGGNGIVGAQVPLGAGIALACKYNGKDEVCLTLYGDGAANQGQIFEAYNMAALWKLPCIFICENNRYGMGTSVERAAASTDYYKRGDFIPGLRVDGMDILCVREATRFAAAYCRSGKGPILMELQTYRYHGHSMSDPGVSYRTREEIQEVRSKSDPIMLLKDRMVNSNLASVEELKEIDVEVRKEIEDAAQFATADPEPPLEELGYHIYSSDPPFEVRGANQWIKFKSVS
PPP2R5D, Q14738, UniProt Q14738, whole entry: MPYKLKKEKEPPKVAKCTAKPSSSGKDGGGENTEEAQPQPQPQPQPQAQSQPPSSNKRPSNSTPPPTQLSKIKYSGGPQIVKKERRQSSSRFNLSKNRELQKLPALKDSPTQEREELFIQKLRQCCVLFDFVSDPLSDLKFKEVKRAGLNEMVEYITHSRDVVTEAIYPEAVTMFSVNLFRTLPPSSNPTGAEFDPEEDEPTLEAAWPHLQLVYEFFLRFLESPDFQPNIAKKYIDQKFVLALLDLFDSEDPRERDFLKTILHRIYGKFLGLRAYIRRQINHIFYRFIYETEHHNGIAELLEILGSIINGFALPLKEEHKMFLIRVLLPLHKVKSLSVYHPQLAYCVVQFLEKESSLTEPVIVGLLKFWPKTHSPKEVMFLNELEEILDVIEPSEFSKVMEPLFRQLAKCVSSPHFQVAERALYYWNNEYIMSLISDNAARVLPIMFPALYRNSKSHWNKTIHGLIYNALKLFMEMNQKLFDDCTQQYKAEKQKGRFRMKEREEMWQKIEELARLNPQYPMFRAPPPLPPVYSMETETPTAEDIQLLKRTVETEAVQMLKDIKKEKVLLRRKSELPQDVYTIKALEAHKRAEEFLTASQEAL

Legend:
Test in all cases: PRISMA enrichment of interactor (LFQ) in peptide spot vs all other peptide spots (log2 fold change); higher = stronger / more specific binding of the interactor to the peptide
[1] = target: R3HDM1, Q15032
Description: (§1)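 PRISMA: 15-aa overlapping tiles (offset 8 aa) of 60 microproteins, plus SOS1/GLUT1 control peptides, were spot-synthesized on cellulose membranes in triplicate. Membranes were incubated with benzonase-treated HEK293T lysate, and bound proteins were identified by LC-MS/MS with LFQ. Enrichment is the log2 fold change of each protein in one spot versus all other spots. Only interactors passing the significance cutoff are listed.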

[2] = target: RAB14, P61106
Description: as §1

[3] = target: RANBP6, O60518
Description: as §1

[4] = target: RFC3, P40938
Description: as §1

[5] = target: RIOK2, Q9BVS4
Description: as §1

[6] = target: S100A9, P06702
Description: as §1

[7] = target: SLC39A7, Q92504
Description: as §1

[8] = target: TENT4B, Q8NDF8
Description: as §1

[9] = target: TRIR, Q9BQ61
Description: as §1

[10] = target: UBA1, P22314
Description: as §1

[11] = target: ADRM1, Q16186
Description: as §1

[12] = target: ARMC6, Q6NXE6
Description: as §1

[13] = target: ATP6V1A, P38606
Description: as §1

[14] = target: CDC27, P30260
Description: as §1

[15] = target: CIRBP, Q14011
Description: as §1

[16] = target: CPS1, P31327
Description: as §1

[17] = target: DAP3, P51398
Description: as §1

[18] = target: DCTN5, Q9BTE1
Description: as §1

[19] = target: DEK, P35659
Description: as §1

[20] = target: DLST, P36957
Description: as §1

[21] = target: EIF3K, Q9UBQ5
Description: as §1

[22] = target: EIF3M, Q7L2H7
Description: as §1

[23] = target: FKBP8, Q14318
Description: as §1

[24] = target: FLOT2, Q14254
Description: as §1

[25] = target: GCFC2, P16383
Description: as §1

[26] = target: GNL1, P36915
Description: as §1

[27] = target: HNRNPF, P52597
Description: as §1

[28] = target: HPRT1, P00492
Description: as §1

[29] = target: HSPB1, P04792
Description: as §1

[30] = target: KPNA3, O00505
Description: as §1

[31] = target: LRRC40, Q9H9A6
Description: as §1

[32] = target: MACF1
Description: as §1

[33] = target: MECP2, P51608
Description: as §1

[34] = target: MRPL58, Q14197
Description: as §1

[35] = target: MRPS28, Q9Y2Q9
Description: as §1

[36] = target: NELFB, Q8WX92
Description: as §1

[37] = target: NOP14, P78316
Description: as §1

[38] = target: NSD2, O96028
Description: as §1

[39] = target: NTMT1, Q9BV86
Description: as §1

[40] = target: PCM1, Q15154
Description: as §1

[41] = target: PDHA1, P08559
Description: as §1

[42] = target: PDLIM1, O00151
Description: as §1

[43] = target: PDP1, Q9P0J1
Description: as §1

[44] = target: PHF3, Q92576
Description: as §1

[45] = target: POLR2H, P52434
Description: as §1

[46] = target: PPP2R5D, Q14738
Description: as §1

[47] = target: PUS1, Q9Y606
Description: as §1

[48] = target: RAVER1, Q8IY67
Description: as §1

[49] = target: SYNCRIP, O60506
Description: as §1

[50] = target: TALDO1, P37837
Description: as §1

[51] = target: TARS, P26639
Description: as §1

[52] = target: TMEM263, Q8WUH6
Description: as §1

[53] = target: TRIM27, P14373
Description: as §1

[54] = target: TTF2, Q9UNY4
Description: as §1

[55] = target: VRK1, Q99986
Description: as §1

[56] = target: WBP11, Q9Y2W2
Description: as §1

[57] = target: ZC2HC1A, Q96GY0
Description: as §1

## VFEELLSQWDAALKS [RP11-140K17.3]
[1]
  PRISMA enrichment of interactor (log2): 4.81
[2]
  PRISMA enrichment of interactor (log2): 6.24
[3]
  PRISMA enrichment of interactor (log2): 4.3
[4]
  PRISMA enrichment of interactor (log2): 6.89
[5]
  PRISMA enrichment of interactor (log2): 3.99
[6]
  PRISMA enrichment of interactor (log2): 7.81
[7]
  PRISMA enrichment of interactor (log2): 4.49
[8]
  PRISMA enrichment of interactor (log2): 3.76
[9]
  PRISMA enrichment of interactor (log2): 3.83
[10]
  PRISMA enrichment of interactor (log2): 5.24

## ALPLLSSLCMAMVRK [IDI2-AS1]
[11]
  PRISMA enrichment of interactor (log2): 4.41
[12]
  PRISMA enrichment of interactor (log2): 7.43
[13]
  PRISMA enrichment of interactor (log2): 4.65
[14]
  PRISMA enrichment of interactor (log2): 7.07
[15]
  PRISMA enrichment of interactor (log2): 4.98
[16]
  PRISMA enrichment of interactor (log2): 5.95
[17]
  PRISMA enrichment of interactor (log2): 4.48
[18]
  PRISMA enrichment of interactor (log2): 5
[19]
  PRISMA enrichment of interactor (log2): 7.69
[20]
  PRISMA enrichment of interactor (log2): 5.83
[21]
  PRISMA enrichment of interactor (log2): 6.49
[22]
  PRISMA enrichment of interactor (log2): 4.66
[23]
  PRISMA enrichment of interactor (log2): 5.13
[24]
  PRISMA enrichment of interactor (log2): 4.36
[25]
  PRISMA enrichment of interactor (log2): 6.84
[26]
  PRISMA enrichment of interactor (log2): 6.23
[27]
  PRISMA enrichment of interactor (log2): 5.11
[28]
  PRISMA enrichment of interactor (log2): 6.13
[29]
  PRISMA enrichment of interactor (log2): 4.92
[30]
  PRISMA enrichment of interactor (log2): 4.63
[31]
  PRISMA enrichment of interactor (log2): 5
[32]
  PRISMA enrichment of interactor (log2): 8.34
[33]
  PRISMA enrichment of interactor (log2): 3.68
[34]
  PRISMA enrichment of interactor (log2): 4.09
[35]
  PRISMA enrichment of interactor (log2): 4.82
[36]
  PRISMA enrichment of interactor (log2): 4.95
[37]
  PRISMA enrichment of interactor (log2): 6.8
[38]
  PRISMA enrichment of interactor (log2): 5.7
[39]
  PRISMA enrichment of interactor (log2): 4.94
[40]
  PRISMA enrichment of interactor (log2): 4.19
[41]
  PRISMA enrichment of interactor (log2): 5.19
[42]
  PRISMA enrichment of interactor (log2): 4.31
[43]
  PRISMA enrichment of interactor (log2): 4.09
[44]
  PRISMA enrichment of interactor (log2): 5.3
[45]
  PRISMA enrichment of interactor (log2): 7.56
[46]
  PRISMA enrichment of interactor (log2): 4.71
[47]
  PRISMA enrichment of interactor (log2): 9.25
[48]
  PRISMA enrichment of interactor (log2): 5.6
[49]
  PRISMA enrichment of interactor (log2): 4.75
[50]
  PRISMA enrichment of interactor (log2): 4.24
[51]
  PRISMA enrichment of interactor (log2): 4.8
[52]
  PRISMA enrichment of interactor (log2): 5.8
[53]
  PRISMA enrichment of interactor (log2): 7.19
[54]
  PRISMA enrichment of interactor (log2): 6.03
[55]
  PRISMA enrichment of interactor (log2): 5.01
[56]
  PRISMA enrichment of interactor (log2): 6.1
[57]
  PRISMA enrichment of interactor (log2): 4.64
